Reference: US20230257385A1, “SALT AND SOLID FORMS OF TABERNANTHALOG” (priority 2021, published 2023)
For at least one compound, name, drawing or mass did not settle the structure.

type: physicochemical
Experimental: Tabernanthalog (native) (50 mg, 1 wt) was charged to a solution of the relevant counter ion (1.0 mol equivalence of counter ion) in ethanol (5.0 vol, 250 μl). The mixtures were warmed to 85° C. and small aliquots of water were added until dissolution occurred (Table 212 for additional charges of solvent). The solutions were cooled and allowed to stand undisturbed under sub-ambient conditions overnight (Table 211). […] Products were isolated via centrifugation. The corresponding pellets were sub-sampled and analyzed wet by XRPD; after which, they were dried at 40° C. under reduced pressure over 20 h and reanalyzed by XRPD. […] Once the crystallization experiments were completed, salt formation was confirmed by ^1H NMR, XRPD, DSC and TGA.

Row | Compound | Observations upon cooling to 20° C. | Observations upon sub-ambient cooling to 6 to 8 C. (40 hr)
1 | COc1ccc2c3c([nH]c2c1)CCN(C)CC3.O=C(O)CO [2 - N1] | Solution | Crystallised
2 | COc1ccc2c3c([nH]c2c1)CCN(C)CC3.O=C(O)C[C@H](O)C(=O)O [2 - O1] | Solution | Crystallised
3 | COc1ccc2c3c([nH]c2c1)CCN(C)CC3.O=C(O)c1ccccc1 [2 - R1] | Solution | Crystallised
4 | COc1ccc2c3c([nH]c2c1)CCN(C)CC3.O=S(=O)(O)CCS(=O)(=O)O [2 - J1] | Solution | Crystallised
5 | Br.COc1ccc2c3c([nH]c2c1)CCN(C)CC3 [2 - A1] | Solution | Solution
6 | COc1ccc2c3c([nH]c2c1)CCN(C)CC3.C[C@H](O)C(=O)O [2 -T1] | Solution | Solution
7 | CCS(=O)(=O)O.COc1ccc2c3c([nH]c2c1)CCN(C)CC3 [2 - D1] | Solution | Solution
8 | COc1ccc2c3c([nH]c2c1)CCN(C)CC3.O=S(=O)(O)O [2 - C1] | Solution | Crystallised
9 | COc1ccc2c3c([nH]c2c1)CCN(C)CC3.O=C(O)/C=C\C(=O)O [2 - G1] | Solution | Crystallised
10 | CC(=O)O.COc1ccc2c3c([nH]c2c1)CCN(C)CC3 [2 - W1] | Solution | Solution
11 | COc1ccc2c3c([nH]c2c1)CCN(C)CC3.CS(=O)(=O)O [2 - F1] | Solution | Solution
12 | COc1ccc2c3c([nH]c2c1)CCN(C)CC3.O=P(O)(O)O [2 - H1] | Solution | Crystallised
